The name of at least one read-out is uncertain.
System: Outgrown HIV-1 RNA virus
Test: PhenoSense Entry Assay of outgrown virus from virologic failure subjects
Type: cell-based
Details: 18 subjects with virologic failure, 14-week Treatment Phase

B1: PRO 140: humanized IgG4,κ monoclonal antibody (mAb) to the C-C chemokine receptor type 5 (CCR5) (antibody, chains of the INN, looked up, V domains shown)
VH: EVQLVESGGGLVKPGGSLRLSCAASGYTFSNYWIGWVRQAPGKGLEWIGDIYPGGNYIRNNEKFKDKTTLSADTSKNTAYLQMNSLKTEDTAVYYCGSSFGSNYVFAWFTYWGQGTLVTVSS
VL: DIVMTQSPLSLPVTPGEPASISCRSSQRLLSSYGHTYLHWYLQKPGQSPQLLIYEVSNRFSGVPDRFSGSGSGTDFTLKISRVEAEDVGVYYCSQSTHVPLTFGQGTKVEIK
  change to the HIV-1 RNA virus or IC50 values as a result of exposure to PRO 140 monotherapy: no significant change

Source: patent US10562969B2, “Substitution monotherapy treatment for HIV-1 infection employing antibody PRO140” (CYTODYN INC., priority 2014, dated 2020)
